{"source": "patent US8067470B2", "about": "“Linoleic acid preparations for the topical treatment of male and female pattern androgenetic alopecia, age-related alopecia, and keratosis pilaris” (priority 2008, dated 2011)", "origin": "cited, not measured here", "system": "AGA", "details": "topical formulation, 2-5% concentration, after six months of application; cited from earlier work", "note": "For at least one compound, name, drawing or mass did not settle the structure.", "data": [{"smiles": "Nc1cc(N2CCCCC2)nc(N)[n+]1[O-]", "note": "[Minoxidil, minoxidil]", "values": [{"measurement": "regrowth of scalp hair", "result": "modest regrowth of scalp hair in some patients"}]}]}
